No constants are given. Whether binding was seen depends on the method and setting. In cells and extracts the contact can be indirect. Some results given as binding are weak or reduced against the parent protein; the word gives no strength.
What was measured:
[1] = target: RanBP9-TT (endogenous RanBP9 with a double tag made of HA and V5) (mouse) (UniProt P69566); experiment: co-IP; anti-V5 magnetic beads on lysates of RanBP9-TT MEFs grown with 10% serum or deprived of serum for 4 h; IgG beads as control; Western blot
[2] = target: RanBP9-V5 (Ran Binding Protein 9 with a V5 tag at the C-terminus) (mouse) (UniProt P69566); experiment: co-IP; anti-V5 magnetic beads on 1 mg pre-cleared NP-40 lysate of lung, liver or BMDM of E2aBP9V5 mice, overnight at 4 °C, 5 washes in NP-40 buffer, Western blot

Sequences of proteins named here, by UniProt entry; tags and fusion partners are left off.
UniProt P69566: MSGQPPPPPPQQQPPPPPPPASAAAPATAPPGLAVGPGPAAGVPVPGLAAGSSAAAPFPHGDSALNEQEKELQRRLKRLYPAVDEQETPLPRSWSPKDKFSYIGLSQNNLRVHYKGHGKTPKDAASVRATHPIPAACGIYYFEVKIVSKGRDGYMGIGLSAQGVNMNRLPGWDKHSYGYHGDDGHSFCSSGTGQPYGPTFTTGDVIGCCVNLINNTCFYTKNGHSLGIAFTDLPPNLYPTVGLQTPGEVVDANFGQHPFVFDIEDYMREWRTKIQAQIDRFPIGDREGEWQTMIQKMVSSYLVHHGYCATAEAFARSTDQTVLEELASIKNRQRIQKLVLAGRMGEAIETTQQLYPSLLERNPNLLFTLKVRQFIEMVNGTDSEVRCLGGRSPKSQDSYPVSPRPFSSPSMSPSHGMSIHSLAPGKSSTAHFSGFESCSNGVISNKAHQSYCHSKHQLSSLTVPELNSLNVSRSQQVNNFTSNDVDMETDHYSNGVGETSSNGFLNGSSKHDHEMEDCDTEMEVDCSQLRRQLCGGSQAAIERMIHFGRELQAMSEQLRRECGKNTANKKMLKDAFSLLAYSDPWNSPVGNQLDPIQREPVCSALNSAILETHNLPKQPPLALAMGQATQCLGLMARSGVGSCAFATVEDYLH
UniProt Q9D7M1: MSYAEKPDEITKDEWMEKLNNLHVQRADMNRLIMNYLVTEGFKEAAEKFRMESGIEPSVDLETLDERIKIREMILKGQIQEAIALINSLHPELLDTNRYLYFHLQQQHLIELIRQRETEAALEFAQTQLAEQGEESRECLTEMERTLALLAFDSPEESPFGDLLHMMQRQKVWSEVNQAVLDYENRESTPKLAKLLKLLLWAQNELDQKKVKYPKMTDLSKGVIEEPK
UniProt Q6VN19: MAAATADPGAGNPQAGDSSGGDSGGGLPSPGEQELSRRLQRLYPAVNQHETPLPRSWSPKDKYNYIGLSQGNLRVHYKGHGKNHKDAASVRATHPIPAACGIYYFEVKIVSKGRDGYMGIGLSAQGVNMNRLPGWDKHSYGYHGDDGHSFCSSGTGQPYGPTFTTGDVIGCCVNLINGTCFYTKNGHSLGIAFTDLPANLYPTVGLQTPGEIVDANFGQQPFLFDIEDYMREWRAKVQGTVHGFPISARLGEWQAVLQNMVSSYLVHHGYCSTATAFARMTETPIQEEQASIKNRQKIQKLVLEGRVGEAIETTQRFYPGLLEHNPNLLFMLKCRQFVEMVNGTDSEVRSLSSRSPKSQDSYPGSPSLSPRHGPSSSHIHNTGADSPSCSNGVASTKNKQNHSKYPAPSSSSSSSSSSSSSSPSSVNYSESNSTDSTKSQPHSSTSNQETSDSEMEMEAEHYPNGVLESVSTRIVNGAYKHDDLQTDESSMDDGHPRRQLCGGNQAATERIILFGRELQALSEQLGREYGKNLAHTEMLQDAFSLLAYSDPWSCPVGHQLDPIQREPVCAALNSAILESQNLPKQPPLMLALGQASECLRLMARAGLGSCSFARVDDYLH

Row | Molecule | binding [1] | binding [2]
1 | Gid8 (Glucose-induced degradation deficient 8) (from UniProt Q9D7M1 1-228) | binds | binds
2 | RanBP10 (Ran Binding Protein 10) (from UniProt Q6VN19 1-620) | binds | 
3 | Maea (Macrophage erythroblast attacher, E3 ubiquitin ligase) (protein, UniProt Q4VC33 1-396) MAVQESAAQLSMTLKVQEYPTLKVPYETLNKRFRAAQKNIDRETSHVTMVVAELEKTLSSCPAVDSVVSLLDGVVEKLSVLKRKAVESIQAEDESAKLCKRRIEHLKEHSSDQPAAASMWKRKRMDRMMVEHLLRCGYYNTAVKLARQSGIEDLVNIEMFLTAKEVEESLERRETATCLAWCHDNKSRLRKMKSCLEFSLRIQEFIELVRQNKRLDAVRHARKHFSQAEGSQLDEVRQVMGMLAFPPDTHISPYKDLLDPARWRMLIQQFRYDNYRLHQLGNSSVFTLTLQAGLSAIKTPQCYKEDGSSKSPDCPVCSRSLNKLAQPLPMAHCANSRLVCKISGDVMNENNPPMMLPNGYVYGYNSLLSIRQDDKVVCPRTKEVFHFSQAEKVYIM |  | binds
